These are yes or no findings as the source states them, for the method shown. In cells and extracts the contact can be indirect. Some binding calls cover weakened binding; strength is not graded here. Values belong to the molecule of their own block, whether it stands above or below them.
Experiments:
[1] = biological target: T1, tissue transglutaminase (human (endogenous in SW620)) (UniProt P21980); test: co-IP; SW620 whole cell lysates (600 μg), 0.5 μg primary antibody, protein A or G Sepharose, 4°C; co-IP buffer 50 mM Tris-HCl, 0.25% sodium deoxycholate, 150 mM NaCl, 500 μM TG inhibitor R283; Western blot of the partner; cells treated with DMSO (control), 1 μM 1-155 or transduced with TG2 shRNA
T1 sequence: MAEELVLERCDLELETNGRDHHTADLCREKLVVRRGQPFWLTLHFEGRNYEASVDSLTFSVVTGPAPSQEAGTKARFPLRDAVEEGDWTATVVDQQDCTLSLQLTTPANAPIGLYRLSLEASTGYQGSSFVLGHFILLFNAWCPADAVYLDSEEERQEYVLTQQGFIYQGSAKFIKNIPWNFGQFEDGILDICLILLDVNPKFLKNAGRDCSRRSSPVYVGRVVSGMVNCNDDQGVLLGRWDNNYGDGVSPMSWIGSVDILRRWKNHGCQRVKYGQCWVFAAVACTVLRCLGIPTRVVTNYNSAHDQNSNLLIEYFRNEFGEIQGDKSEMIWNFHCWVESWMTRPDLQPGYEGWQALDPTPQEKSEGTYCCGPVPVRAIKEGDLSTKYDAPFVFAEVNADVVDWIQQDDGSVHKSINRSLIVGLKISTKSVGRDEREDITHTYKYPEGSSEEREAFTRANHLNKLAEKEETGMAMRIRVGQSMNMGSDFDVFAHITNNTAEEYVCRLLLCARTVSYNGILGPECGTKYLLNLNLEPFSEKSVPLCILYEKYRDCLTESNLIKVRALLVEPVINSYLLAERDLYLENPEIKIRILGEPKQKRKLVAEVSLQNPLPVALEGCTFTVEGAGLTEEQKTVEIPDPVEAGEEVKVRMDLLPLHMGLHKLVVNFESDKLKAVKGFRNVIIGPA

The chains behind the UniProt entries cited, without tags or fusion partners. Residues count along the entry.
UniProt P35222: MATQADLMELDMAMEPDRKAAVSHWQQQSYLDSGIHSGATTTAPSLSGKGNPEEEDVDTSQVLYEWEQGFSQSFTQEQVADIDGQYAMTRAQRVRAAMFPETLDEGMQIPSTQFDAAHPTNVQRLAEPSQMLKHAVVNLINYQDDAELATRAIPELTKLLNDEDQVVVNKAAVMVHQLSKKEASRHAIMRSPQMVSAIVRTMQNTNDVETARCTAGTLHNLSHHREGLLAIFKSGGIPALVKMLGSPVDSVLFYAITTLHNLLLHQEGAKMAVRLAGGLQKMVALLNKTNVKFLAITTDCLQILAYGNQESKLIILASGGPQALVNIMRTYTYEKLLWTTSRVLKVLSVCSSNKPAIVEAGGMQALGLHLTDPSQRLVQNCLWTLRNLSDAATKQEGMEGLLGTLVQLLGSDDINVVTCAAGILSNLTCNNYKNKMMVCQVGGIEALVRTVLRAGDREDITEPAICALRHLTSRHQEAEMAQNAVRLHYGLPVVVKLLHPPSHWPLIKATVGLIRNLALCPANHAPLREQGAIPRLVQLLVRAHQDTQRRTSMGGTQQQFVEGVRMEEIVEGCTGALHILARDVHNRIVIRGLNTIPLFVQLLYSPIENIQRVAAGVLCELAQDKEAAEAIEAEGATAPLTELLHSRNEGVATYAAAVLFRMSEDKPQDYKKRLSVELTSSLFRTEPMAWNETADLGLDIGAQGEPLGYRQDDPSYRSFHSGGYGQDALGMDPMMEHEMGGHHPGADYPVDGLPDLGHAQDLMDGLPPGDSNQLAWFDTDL
UniProt O75197, residues 32-1615: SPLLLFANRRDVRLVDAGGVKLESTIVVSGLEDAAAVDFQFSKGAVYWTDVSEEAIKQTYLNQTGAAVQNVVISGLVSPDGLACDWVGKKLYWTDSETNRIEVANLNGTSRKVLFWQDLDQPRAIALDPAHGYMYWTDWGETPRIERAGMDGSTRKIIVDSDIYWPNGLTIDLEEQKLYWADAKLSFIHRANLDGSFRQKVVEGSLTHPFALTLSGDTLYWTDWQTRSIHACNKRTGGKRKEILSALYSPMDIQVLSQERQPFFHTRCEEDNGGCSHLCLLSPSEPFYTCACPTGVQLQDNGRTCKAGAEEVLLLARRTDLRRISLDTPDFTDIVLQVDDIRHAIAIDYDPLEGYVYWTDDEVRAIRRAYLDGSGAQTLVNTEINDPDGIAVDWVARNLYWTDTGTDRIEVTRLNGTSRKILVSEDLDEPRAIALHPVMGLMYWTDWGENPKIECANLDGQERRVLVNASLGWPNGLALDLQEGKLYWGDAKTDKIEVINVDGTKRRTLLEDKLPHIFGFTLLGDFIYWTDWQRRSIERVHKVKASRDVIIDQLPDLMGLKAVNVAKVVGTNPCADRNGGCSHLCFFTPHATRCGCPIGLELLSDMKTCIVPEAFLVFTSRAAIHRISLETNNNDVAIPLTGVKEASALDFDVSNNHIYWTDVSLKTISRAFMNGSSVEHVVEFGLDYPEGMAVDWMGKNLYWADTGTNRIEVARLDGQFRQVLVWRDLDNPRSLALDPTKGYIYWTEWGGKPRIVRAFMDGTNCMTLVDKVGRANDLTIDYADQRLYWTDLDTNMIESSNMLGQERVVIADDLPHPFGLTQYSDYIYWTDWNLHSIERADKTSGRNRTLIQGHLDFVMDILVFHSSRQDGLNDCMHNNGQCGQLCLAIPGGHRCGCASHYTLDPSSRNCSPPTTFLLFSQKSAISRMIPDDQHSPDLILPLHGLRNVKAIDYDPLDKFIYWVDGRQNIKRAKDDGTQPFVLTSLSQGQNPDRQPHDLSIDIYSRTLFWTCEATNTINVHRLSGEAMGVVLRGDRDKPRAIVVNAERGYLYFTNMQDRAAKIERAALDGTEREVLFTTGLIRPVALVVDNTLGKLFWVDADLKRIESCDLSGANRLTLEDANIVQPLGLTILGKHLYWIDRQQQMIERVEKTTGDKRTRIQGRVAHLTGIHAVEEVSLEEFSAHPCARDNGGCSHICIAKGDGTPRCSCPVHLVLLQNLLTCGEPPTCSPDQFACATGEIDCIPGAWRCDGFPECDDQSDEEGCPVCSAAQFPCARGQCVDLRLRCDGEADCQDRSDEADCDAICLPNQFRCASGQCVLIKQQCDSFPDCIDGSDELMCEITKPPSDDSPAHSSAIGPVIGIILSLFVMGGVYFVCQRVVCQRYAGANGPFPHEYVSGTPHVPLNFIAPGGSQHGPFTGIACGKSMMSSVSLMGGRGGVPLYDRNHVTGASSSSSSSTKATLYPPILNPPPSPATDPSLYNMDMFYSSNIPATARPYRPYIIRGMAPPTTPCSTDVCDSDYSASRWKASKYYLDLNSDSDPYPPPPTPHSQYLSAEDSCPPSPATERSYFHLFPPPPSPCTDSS

[2] = biological target: T1, tissue transglutaminase (human (endogenous in SW620)); test: condition: only cells treated with TG2 inhibitor 1-155 (1 μM); co-IP; as a1, SW620 cells treated with the TG2 selective inhibitor 1-155 (1 μM) before lysis; TG2 co-IP blotted for β-catenin and β-catenin co-IP blotted for TG2
[3] = biological target: β-catenin (human (endogenous in SW620)) (UniProt P35222); test: co-IP; SW620 whole cell lysates (600 μg), 0.5 μg primary antibody, protein A or G Sepharose, 4°C; co-IP buffer 50 mM Tris-HCl, 0.25% sodium deoxycholate, 150 mM NaCl, 500 μM TG inhibitor R283; Western blot of the partner; cells treated with DMSO (control), 1 μM 1-155 or transduced with TG2 shRNA

binding [1]: binds
Molecule: Low-density lipoprotein receptor-related protein 5 (from UniProt O75197 32-1615)

binding [2]: no binding
binding [1]: binds
Molecule: β-catenin (from UniProt P35222 1-781)

binding [3]: binds
B1: tissue transglutaminase (enzyme, UniProt P21980 1-687)
chain: T1 sequence

— article PMC5386741
